The results in this text go back to paper doi:10.1101/2024.10.03.616509.

Results are given in words; binding and its absence hold for the method and conditions named. For some of these results: In cells and extracts the contact can be indirect. For some of these results: A result given as binding can be weak or reduced; the word gives no strength. For some of these results: Where a sequence is shown, tags or fusion partners need not be part of it.

The target of one assay is GFP-Rab5 (Q79L). The assay is described as follows: co-IP.
The target in the next assay is Rab5 (Q79L). The assay can be described thus: two-hybrid.

B1: FLAG-TECPR2 (I1256A) (protein, UniProt O15040 1-1411)
chain: MASISEPVTFREFCPLYYLLNAIPTKIQKGFRSIVVYLTALDTNGDYIAVGSSIGMLYLYCRHLNQMRKYNFEGKTESITVVKLLSCFDDLVAAGTASGRVAVFQLVSSLPGRNKQLRRFDVTGIHKNSITALAWSPNGMKLFSGDDKGKIVYSSLDLDQGLCNSQLVLEEPSSIVQLDYSQKVLLVSTLQRSLLFYTEEKSVRQIGTQPRKSTGKFGACFIPGLCKQSDLTLYASRPGLRLWKADVHGTVQATFILKDAFAGGVKPFELHPRLESPNSGSCSLPERHLGLVSCFFQEGWVLSWNEYSIYLLDTVNQATVAGLEGSGDIVSVSCTENEIFFLKGDRNIIRISSRPEGLTSTVRDGLEMSGCSERVHVQQAEKLPGATVSETRLRGSSMASSVASEPRSRSSSLNSTDSGSGLLPPGLQATPELGKGSQPLSQRFNAISSEDFDQELVVKPIKVKRKKKKKKTEGGSRSTCHSSLESTPCSEFPGDSPQSLNTDLLSMTSSVLGSSVDQLSAESPDQESSFNGEVNGVPQENTDPETFNVLEVSGSMPDSLAEEDDIRTEMPHCHHAHGRELLNGAREDVGGSDVTGLGDEPCPADDGPNSTQLPFQEQDSSPGAHDGEDIQPIGPQSTFCEVPLLNSLTVPSSLSWAPSAEQWLPGTRADEGSPVEPSQEQDILTSMEASGHLSTNLWHAVTDDDTGQKEIPISERVLGSVGGQLTPVSALAASTHKPWLEQPPRDQTLTSSDEEDIYAHGLPSSSSETSVTELGPSCSQQDLSRLGAEDAGLLKPDQFAESWMGYSGPGYGILSLVVSEKYIWCLDYKGGLFCSALPGAGLRWQKFEDAVQQVAVSPSGALLWKIEQKSNRAFACGKVTIKGKRHWYEALPQAVFVALSDDTAWIIRTSGDLYLQTGLSVDRPCARAVKVDCPYPLSQITARNNVVWALTEQRALLYREGVSSFCPEGEQWKCDIVSERQALEPVCITLGDQQTLWALDIHGNLWFRTGIISKKPQGDDDHWWQVSITDYVVFDQCSLFQTIIHATHSVATAAQAPVEKVADKLRMAFWSQQLQCQPSLLGVNNSGVWISSGKNEFHVAKGSLIGTYWNHVVPRGTASATKWAFVLASAAPTKEGSFLWLCQSSKDLCSVSAQSAQSRPSTVQLPPEAEMRAYAACQDALWALDSLGQVFIRTLSKSCPTGMHWTRLDLSQLGAVKLTSLACGNQHIWACDSRGGVYFRVGTQPLNPSLMLPAWAMIEPPVQPAGVSLVSVHSSPNDQMLWVLDSRWNVHVRTGITEEMPVGTAWEHVPGLQACQLALSTRTVWARCPNGDLARRYGVTDKNPAGDYWKKIPGSVSCFTVTASDELWAVGPPGYLLQRLTKTFSHSHGTQKSSQAAMPHPEDLEDEWEVI
Turning to B1, in the assay with GFP-Rab5 (Q79L), the binding result is on record as “binds”.

B2: TECPR2 (W1140G) (protein, UniProt O15040 1-1411)
chain: MASISEPVTFREFCPLYYLLNAIPTKIQKGFRSIVVYLTALDTNGDYIAVGSSIGMLYLYCRHLNQMRKYNFEGKTESITVVKLLSCFDDLVAAGTASGRVAVFQLVSSLPGRNKQLRRFDVTGIHKNSITALAWSPNGMKLFSGDDKGKIVYSSLDLDQGLCNSQLVLEEPSSIVQLDYSQKVLLVSTLQRSLLFYTEEKSVRQIGTQPRKSTGKFGACFIPGLCKQSDLTLYASRPGLRLWKADVHGTVQATFILKDAFAGGVKPFELHPRLESPNSGSCSLPERHLGLVSCFFQEGWVLSWNEYSIYLLDTVNQATVAGLEGSGDIVSVSCTENEIFFLKGDRNIIRISSRPEGLTSTVRDGLEMSGCSERVHVQQAEKLPGATVSETRLRGSSMASSVASEPRSRSSSLNSTDSGSGLLPPGLQATPELGKGSQPLSQRFNAISSEDFDQELVVKPIKVKRKKKKKKTEGGSRSTCHSSLESTPCSEFPGDSPQSLNTDLLSMTSSVLGSSVDQLSAESPDQESSFNGEVNGVPQENTDPETFNVLEVSGSMPDSLAEEDDIRTEMPHCHHAHGRELLNGAREDVGGSDVTGLGDEPCPADDGPNSTQLPFQEQDSSPGAHDGEDIQPIGPQSTFCEVPLLNSLTVPSSLSWAPSAEQWLPGTRADEGSPVEPSQEQDILTSMEASGHLSTNLWHAVTDDDTGQKEIPISERVLGSVGGQLTPVSALAASTHKPWLEQPPRDQTLTSSDEEDIYAHGLPSSSSETSVTELGPSCSQQDLSRLGAEDAGLLKPDQFAESWMGYSGPGYGILSLVVSEKYIWCLDYKGGLFCSALPGAGLRWQKFEDAVQQVAVSPSGALLWKIEQKSNRAFACGKVTIKGKRHWYEALPQAVFVALSDDTAWIIRTSGDLYLQTGLSVDRPCARAVKVDCPYPLSQITARNNVVWALTEQRALLYREGVSSFCPEGEQWKCDIVSERQALEPVCITLGDQQTLWALDIHGNLWFRTGIISKKPQGDDDHWWQVSITDYVVFDQCSLFQTIIHATHSVATAAQAPVEKVADKLRMAFWSQQLQCQPSLLGVNNSGVWISSGKNEFHVAKGSLIGTYWNHVVPRGTASATKWAFVLASAAPTKEGSFLGLCQSSKDLCSVSAQSAQSRPSTVQLPPEAEMRAYAACQDALWALDSLGQVFIRTLSKSCPTGMHWTRLDLSQLGAVKLTSLACGNQHIWACDSRGGVYFRVGTQPLNPSLMLPAWIMIEPPVQPAGVSLVSVHSSPNDQMLWVLDSRWNVHVRTGITEEMPVGTAWEHVPGLQACQLALSTRTVWARCPNGDLARRYGVTDKNPAGDYWKKIPGSVSCFTVTASDELWAVGPPGYLLQRLTKTFSHSHGTQKSSQAAMPHPEDLEDEWEVI
For the molecule B2, the binding entry with Rab5 (Q79L) is recorded as “no binding”.

B3: TECPR2 (R1336W) (protein, UniProt O15040 1-1411)
chain: MASISEPVTFREFCPLYYLLNAIPTKIQKGFRSIVVYLTALDTNGDYIAVGSSIGMLYLYCRHLNQMRKYNFEGKTESITVVKLLSCFDDLVAAGTASGRVAVFQLVSSLPGRNKQLRRFDVTGIHKNSITALAWSPNGMKLFSGDDKGKIVYSSLDLDQGLCNSQLVLEEPSSIVQLDYSQKVLLVSTLQRSLLFYTEEKSVRQIGTQPRKSTGKFGACFIPGLCKQSDLTLYASRPGLRLWKADVHGTVQATFILKDAFAGGVKPFELHPRLESPNSGSCSLPERHLGLVSCFFQEGWVLSWNEYSIYLLDTVNQATVAGLEGSGDIVSVSCTENEIFFLKGDRNIIRISSRPEGLTSTVRDGLEMSGCSERVHVQQAEKLPGATVSETRLRGSSMASSVASEPRSRSSSLNSTDSGSGLLPPGLQATPELGKGSQPLSQRFNAISSEDFDQELVVKPIKVKRKKKKKKTEGGSRSTCHSSLESTPCSEFPGDSPQSLNTDLLSMTSSVLGSSVDQLSAESPDQESSFNGEVNGVPQENTDPETFNVLEVSGSMPDSLAEEDDIRTEMPHCHHAHGRELLNGAREDVGGSDVTGLGDEPCPADDGPNSTQLPFQEQDSSPGAHDGEDIQPIGPQSTFCEVPLLNSLTVPSSLSWAPSAEQWLPGTRADEGSPVEPSQEQDILTSMEASGHLSTNLWHAVTDDDTGQKEIPISERVLGSVGGQLTPVSALAASTHKPWLEQPPRDQTLTSSDEEDIYAHGLPSSSSETSVTELGPSCSQQDLSRLGAEDAGLLKPDQFAESWMGYSGPGYGILSLVVSEKYIWCLDYKGGLFCSALPGAGLRWQKFEDAVQQVAVSPSGALLWKIEQKSNRAFACGKVTIKGKRHWYEALPQAVFVALSDDTAWIIRTSGDLYLQTGLSVDRPCARAVKVDCPYPLSQITARNNVVWALTEQRALLYREGVSSFCPEGEQWKCDIVSERQALEPVCITLGDQQTLWALDIHGNLWFRTGIISKKPQGDDDHWWQVSITDYVVFDQCSLFQTIIHATHSVATAAQAPVEKVADKLRMAFWSQQLQCQPSLLGVNNSGVWISSGKNEFHVAKGSLIGTYWNHVVPRGTASATKWAFVLASAAPTKEGSFLWLCQSSKDLCSVSAQSAQSRPSTVQLPPEAEMRAYAACQDALWALDSLGQVFIRTLSKSCPTGMHWTRLDLSQLGAVKLTSLACGNQHIWACDSRGGVYFRVGTQPLNPSLMLPAWIMIEPPVQPAGVSLVSVHSSPNDQMLWVLDSRWNVHVRTGITEEMPVGTAWEHVPGLQACQLALSTRTVWARCPNGDLARWYGVTDKNPAGDYWKKIPGSVSCFTVTASDELWAVGPPGYLLQRLTKTFSHSHGTQKSSQAAMPHPEDLEDEWEVI
For B3, the binding result with Rab5 (Q79L) is given as “no binding”.

B4: FLAG-TECPR2 (T903M) (protein, UniProt O15040 1-1411)
chain: MASISEPVTFREFCPLYYLLNAIPTKIQKGFRSIVVYLTALDTNGDYIAVGSSIGMLYLYCRHLNQMRKYNFEGKTESITVVKLLSCFDDLVAAGTASGRVAVFQLVSSLPGRNKQLRRFDVTGIHKNSITALAWSPNGMKLFSGDDKGKIVYSSLDLDQGLCNSQLVLEEPSSIVQLDYSQKVLLVSTLQRSLLFYTEEKSVRQIGTQPRKSTGKFGACFIPGLCKQSDLTLYASRPGLRLWKADVHGTVQATFILKDAFAGGVKPFELHPRLESPNSGSCSLPERHLGLVSCFFQEGWVLSWNEYSIYLLDTVNQATVAGLEGSGDIVSVSCTENEIFFLKGDRNIIRISSRPEGLTSTVRDGLEMSGCSERVHVQQAEKLPGATVSETRLRGSSMASSVASEPRSRSSSLNSTDSGSGLLPPGLQATPELGKGSQPLSQRFNAISSEDFDQELVVKPIKVKRKKKKKKTEGGSRSTCHSSLESTPCSEFPGDSPQSLNTDLLSMTSSVLGSSVDQLSAESPDQESSFNGEVNGVPQENTDPETFNVLEVSGSMPDSLAEEDDIRTEMPHCHHAHGRELLNGAREDVGGSDVTGLGDEPCPADDGPNSTQLPFQEQDSSPGAHDGEDIQPIGPQSTFCEVPLLNSLTVPSSLSWAPSAEQWLPGTRADEGSPVEPSQEQDILTSMEASGHLSTNLWHAVTDDDTGQKEIPISERVLGSVGGQLTPVSALAASTHKPWLEQPPRDQTLTSSDEEDIYAHGLPSSSSETSVTELGPSCSQQDLSRLGAEDAGLLKPDQFAESWMGYSGPGYGILSLVVSEKYIWCLDYKGGLFCSALPGAGLRWQKFEDAVQQVAVSPSGALLWKIEQKSNRAFACGKVTIKGKRHWYEALPQAVFVALSDDMAWIIRTSGDLYLQTGLSVDRPCARAVKVDCPYPLSQITARNNVVWALTEQRALLYREGVSSFCPEGEQWKCDIVSERQALEPVCITLGDQQTLWALDIHGNLWFRTGIISKKPQGDDDHWWQVSITDYVVFDQCSLFQTIIHATHSVATAAQAPVEKVADKLRMAFWSQQLQCQPSLLGVNNSGVWISSGKNEFHVAKGSLIGTYWNHVVPRGTASATKWAFVLASAAPTKEGSFLWLCQSSKDLCSVSAQSAQSRPSTVQLPPEAEMRAYAACQDALWALDSLGQVFIRTLSKSCPTGMHWTRLDLSQLGAVKLTSLACGNQHIWACDSRGGVYFRVGTQPLNPSLMLPAWIMIEPPVQPAGVSLVSVHSSPNDQMLWVLDSRWNVHVRTGITEEMPVGTAWEHVPGLQACQLALSTRTVWARCPNGDLARRYGVTDKNPAGDYWKKIPGSVSCFTVTASDELWAVGPPGYLLQRLTKTFSHSHGTQKSSQAAMPHPEDLEDEWEVI
On to B4, for which the binding result in the assay with GFP-Rab5 (Q79L) was “binds”.
